{"source": "patent US12582637B2", "about": "“Topical formulation for intradermal application and uses thereof” (Arctic Therapeutics hf, priority 2018, dated 2026)", "conditions": "F34 vs F20, FIGS. 4-6"}
{"smiles": "COc1cc2c(cc1OC)C(=O)C(CC1CCN(Cc3ccccc3)CC1)C2", "note": "(stereo not shown) [Donepezil base]", "values": [{"measurement": "crossing the skin, donepezil base versus donepezil HCL", "value": "tended to cross the skin more readily"}]}
